Measured values from US11618742B2, “Radical polymerization initiator, composition containing same, cured product of composition, production method for cured product, and compound” (ADEKA CORPORATION, priority 2018, dated 2023).
Some of these results come from one statement about several compounds together.

Assay: Maximum absorption wavelength (absorption spectrum, spectrophotometer)
Assay type: physicochemical
Conditions: 0.1%-by-mass aqueous solution, range of 300 nm to 600 nm
Description: (2) load the measurement aqueous solution to a quartz cell (optical path length=10 mm, thickness 1.25 mm), and measure the absorption spectrum using a spectrophotometer (e.g., visible-ultraviolet absorption spectrometer V-670 manufactured by JASCO Corporation). As the absorption spectrum of the measurement aqueous solution, a corrected absorption spectrum obtained by measuring the absorption spectrum of water alone in advance and deducting this absorption spectrum of water from the absorption spectrum of the measurement aqueous solution is used. […] (2) The thus obtained measurement aqueous solutions were each loaded to a quartz cell (optical path length—10 mm, thickness 1.25 mm), and an absorption spectrum was measured using a spectrophotometer (e.g., visible-ultraviolet absorption spectrometer V-670 manufactured by JASCO Corporation). […] Further, as the absorption spectrum, a corrected absorption spectrum obtained by measuring the absorption spectrum of the solvent itself in advance and deducting this absorption spectrum of the solvent from the absorption spectrum of the measurement solution was used.

SMILES: O=C(O)c1cccc2c(=O)c3ccccc3sc12 [Compound 61]
- Maximum absorption wavelength (listed as A-1): ≥ 380 nm

SMILES: O=C(O)c1cccc2c(=O)c3ccccc3sc12 [Compound 1]
- Maximum absorption wavelength (listed as A-2): ≥ 380 nm
